Test results as given in PubChem BioAssay AID2685 (National Center for Advancing Translational Sciences (NCATS), 2010).
The list shows a part of the results. The main result of the screen is listed elsewhere. These columns were measured beside it and carry no call. The list favours compounds with an active or inconclusive main result. Potencies come from curve fits of mixed quality, noted in brackets.

Assay: qHTS Assay for Lipid Storage Modulators in Drosophila S3 Cells;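 for cell number change: cells counted by Cell Tracker Red CMTPX staining in the red channel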
Details: BODIPY lipid droplet fluorescence, 18-24 h; for cell number change: measured here: cell count max response, cells fed with added oleic acid
In short: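 Drosophila S3 cells got compounds at several concentrations plus oleic acid (400 uM solution). Laser-scanning cytometry with 488 nm excitation read lipid droplets at 500-530 nm and cells at 575-640 nm. Percent activity was relative to 20 uM Triacsin C.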

[1] = measured here: lipid fluorescence (Fed channel) AC50, cells fed with added oleic acid
[2] = measured here: cell number channel AC50, cells fed with added oleic acid

Compound	cell number change	AC50 [1]	AC50 [2]
Cc1noc(NS(=O)(=O)c2ccc(NC(=O)CSc3nc4c(cc3C#N)CCCC4)cc2)c1C	17.5%		
COC(=O)c1ccc(OCC(=O)Nc2ccccc2C(=O)NC2CC2)cc1	-0.389%	0.82 µM [rising, single point]	
COc1ccc(C(CNC(=O)COc2ccccc2OC)N2CCCCC2)cc1 (configuration not stated)			0.00651 µM [falling, full curve, poor fit]
CCc1ccccc1NC(=O)CN(C)C(=O)CSc1nnc(Nc2cccc(C)c2)s1	-5.47%		
O=S(=O)(Nc1ccccn1)c1ccc(Oc2ccccc2)cc1		1.16 µM [falling, partial curve, poor fit]	
CCCC(=O)Nc1sc(C)c(C)c1C#N		4.61 µM [rising, full curve, poor fit]	0.0517 µM [rising, full curve, poor fit]
Cc1ccc(C)n1-c1ccc(N2CCOCC2)nc1	-3.37%		
CCN1CCN(C2CCCCC2NS(=O)(=O)c2ccc(Cl)cc2)CC1 (configuration not stated)	11.3%	4.11 µM [rising, full curve]	
CCOC(=O)c1cc(C(C)C)sc1NC(=O)COC(=O)c1nccnc1N	-7.13%	29.1 µM [falling, single point]	
NS(=O)(=O)c1cccc(NC(=O)COC(=O)CCCc2c[nH]c3ccccc23)c1		6.51 µM [falling, single point]	
COc1ccc(C(=O)NNC2CC(=O)N(Cc3ccccc3)C2=O)cc1OC (configuration not stated)	8.56%	0.291 µM [rising, full curve, poor fit]	
Cc1cccn2c(=O)c3cc(C(=O)NCCCn4ccnc4)n(C)c3nc12	7.81%	0.82 µM [rising, full curve, poor fit]	
O=C(Nc1cccc(Br)c1)c1ccc(OC2CSC2)cc1	10.4%		
Cc1ccc(/C=N/n2c(COc3ccccc3)n[nH]c2=S)o1	-40.8%	4.11 µM [falling, full curve, poor fit]	3.66 µM [falling, full curve, poor fit]
Cc1ccc(-c2cc3cccc[n+]3cc2-c2ccc(C)cc2)cc1	-78%	18.4 µM [falling, single point]	16.4 µM [falling, single point]
COc1ccccc1N(C)C(=O)c1cc(S(=O)(=O)N2CCc3ccccc32)cn1C	-11%	14.6 µM [falling, partial curve]	
Cc1ccnc(SCCn2c(N3CCN(Cc4ccccc4)CC3)nc3c2c(=O)[nH]c(=O)n3C)n1	10.7%		
O=C(O)c1ccc(Cn2cc(/C=C\[N+](=O)[O-])c3ccccc32)o1	-13.2%		
COc1ccc(-c2[nH]ncc2CN2CCCC(C(=O)c3cccc(OC)c3)C2)cc1 (configuration not stated)	23.2%		
CCOc1ccccc1NC(=O)C1CCN(S(=O)(=O)c2cccc3cccnc23)CC1	-33.9%	6.51 µM [falling, single point]	6.51 µM [falling, single point]
Cc1sc2nc(-c3cccnc3)[nH]c(=O)c2c1-c1ccccc1	-25.3%	29.1 µM [rising, single point]	

Shown in markdown: entries from further up.

| Compound | cell number change | AC50 [1] | AC50 [2] |
| --- | --- | --- | --- |
| COc1ccc(C(CNC(=O)COc2ccccc2OC)N2CCCCC2)cc1 (configuration not stated) |  |  | 0.00651 µM [falling, full curve, poor fit] |
| CCc1ccccc1NC(=O)CN(C)C(=O)CSc1nnc(Nc2cccc(C)c2)s1 | -5.47% |  |  |
| O=S(=O)(Nc1ccccn1)c1ccc(Oc2ccccc2)cc1 |  | 1.16 µM [falling, partial curve, poor fit] |  |
| CCCC(=O)Nc1sc(C)c(C)c1C#N |  | 4.61 µM [rising, full curve, poor fit] | 0.0517 µM [rising, full curve, poor fit] |
| Cc1ccc(C)n1-c1ccc(N2CCOCC2)nc1 | -3.37% |  |  |
| CCN1CCN(C2CCCCC2NS(=O)(=O)c2ccc(Cl)cc2)CC1 (configuration not stated) | 11.3% | 4.11 µM [rising, full curve] |  |
| CCOC(=O)c1cc(C(C)C)sc1NC(=O)COC(=O)c1nccnc1N | -7.13% | 29.1 µM [falling, single point] |  |
| NS(=O)(=O)c1cccc(NC(=O)COC(=O)CCCc2c[nH]c3ccccc23)c1 |  | 6.51 µM [falling, single point] |  |
| COc1ccc(C(=O)NNC2CC(=O)N(Cc3ccccc3)C2=O)cc1OC (configuration not stated) | 8.56% | 0.291 µM [rising, full curve, poor fit] |  |
| Cc1cccn2c(=O)c3cc(C(=O)NCCCn4ccnc4)n(C)c3nc12 | 7.81% | 0.82 µM [rising, full curve, poor fit] |  |
| O=C(Nc1cccc(Br)c1)c1ccc(OC2CSC2)cc1 | 10.4% |  |  |
| Cc1ccc(/C=N/n2c(COc3ccccc3)n[nH]c2=S)o1 | -40.8% | 4.11 µM [falling, full curve, poor fit] | 3.66 µM [falling, full curve, poor fit] |
| Cc1ccc(-c2cc3cccc[n+]3cc2-c2ccc(C)cc2)cc1 | -78% | 18.4 µM [falling, single point] | 16.4 µM [falling, single point] |
| COc1ccccc1N(C)C(=O)c1cc(S(=O)(=O)N2CCc3ccccc32)cn1C | -11% | 14.6 µM [falling, partial curve] |  |
| Cc1ccnc(SCCn2c(N3CCN(Cc4ccccc4)CC3)nc3c2c(=O)[nH]c(=O)n3C)n1 | 10.7% |  |  |

The listing continues:

Compound	cell number change	AC50 [1]	AC50 [2]
CCCc1ccc(OCc2nc(-c3ccc(NC(=O)c4ccco4)cc3)no2)cc1	-38%		0.0259 µM [falling, partial curve]
Cn1/c(=N/N=C/c2ccccn2)sc2ccccc21		3.26 µM [rising, partial curve]	
Cc1ccc(C(CCNC(C)c2cccs2)c2ccco2)cc1 (configuration not stated)	-38.7%	18.4 µM [falling, single point]	29.1 µM [falling, single point]
O=C(Nc1ccc(O)c2c(=O)cc(-c3ccccc3Cl)oc12)c1ccccc1Cl	11.8%	5.17 µM [rising, partial curve]	
Cc1ccc(-n2[nH]c(C)c(/C=N/c3cccc(C)n3)c2=O)cc1	20.7%	32.6 µM [rising, partial curve, poor fit]	
N#CCCn1cc(C(=O)CN2C(=O)C(=O)N(C3CCCC3)C2=O)c2ccccc21	1.2%		
O=C(CN1CCOCC1)Nc1ccc([N+](=O)[O-])cc1	2.07%		
COc1cc(C(C(=O)NC2CCCCC2)N(C(=O)c2cnccn2)c2ccccc2)cc(OC)c1OC (configuration not stated)	8.06%	0.731 µM [rising, full curve, poor fit]	
CCOC(=O)CCC(=O)N1CCOCCOCCN(C(=O)CCC(=O)OCC)CCOCC1	-100%	0.0731 µM [falling, full curve]	23.1 µM [falling, partial curve]
O=C(COC(=O)C1(c2ccc(F)cc2)CCCC1)NCc1ccc2c(c1)OCO2	-6.04%	29.1 µM [falling, single point]	
COc1cc(NC(=O)C/C(C)=N/NC(=O)Cc2ccc(Cl)cc2)c(OC)cc1Cl	24.8%	1.84 µM [rising, partial curve]	
COc1ccccc1NC(=S)N(C(C)C)C(C)c1ccccn1 (configuration not stated)	-0.881%	0.13 µM [rising, full curve, poor fit]	0.13 µM [rising, full curve, poor fit]
O=C(N[C@@H](Cc1ccccc1)C(=O)Nc1ccc(F)cc1)C1CCNCC1	-18.1%	0.146 µM [falling, full curve]	
COc1ccc(-c2cccc(C(=O)Nc3cccc(C(=O)O)c3)c2)cc1	23.3%		
O=C(CSCc1ccccc1)N1CCN(c2ccccc2)CC1	12%	20.6 µM [rising, single point]	
CCCCCN1N=C(C)CC1=O	6.49%		
CCCCN(C1CCS(=O)(=O)C1)S(=O)(=O)c1cc(C)ccc1C (configuration not stated)	-10.8%	29.1 µM [falling, single point]	
O=C(Oc1ccc(C(=S)N2CCOCC2)cc1)c1cccc(Cl)c1	-2.2%	29.1 µM [rising, single point]	
Cc1ccccc1-c1n[nH]c(=S)o1	9.76%	29.1 µM [rising, single point]	
COc1ccc(NC(=O)CSC2=NN3CCCC(=O)N=C3S2)c(OC)c1	21.4%	29.1 µM [rising, partial curve]	
COc1ccc(C(=O)N(CCCO)C(C)C(=O)NC2CCCCC2)cc1OC (configuration not stated)	-11.8%	20.6 µM [falling, single point]	

Compound	cell number change	AC50 [1]	AC50 [2]
CCOc1ccc2nc(Cl)sc2c1	-6.15%	0.00411 µM [falling, full curve, poor fit]	
O=C(O)CCn1c(SCc2ccccc2)nc2ccccc21	50.8%		29.1 µM [rising, single point]
CC(C)NC(=O)CSc1nnc(-c2ccco2)n1N	2.56%	20.6 µM [falling, single point]	
CCCCC(O)(c1ccc(F)cc1)C(CN1CCOCC1)c1ccc(Cl)cc1 (configuration not stated)	36.9%	11.6 µM [rising, single point]	3.66 µM [rising, partial curve, poor fit]
COc1ccc(C2=NOC(C(=O)NC(C)C)C2)cc1 (configuration not stated)	-33.9%	16.4 µM [falling, single point]	
CCc1ccc(OCc2ccc(C(=O)NCc3ccccn3)o2)cc1			2.59 µM [rising, single point]
COc1ccc(C(=O)NCC(=O)N2CCN(C(=O)c3ccco3)CC2)cc1OC	-12.5%		
CCN(C(=O)CSc1nc2nc(C)cc(C)n2n1)C1CCS(=O)(=O)C1 (configuration not stated)		0.58 µM [falling, single point]	0.00461 µM [falling, full curve, poor fit]
COc1ccc2nc(NC(=O)CSc3ccccc3)sc2c1		2.06 µM [rising, partial curve]	2.06 µM [rising, partial curve]
CC1CCC2(CC1)C(Nc1cccc(Cl)c1)=NC(=S)N2CC#N (configuration not stated)	-19.1%	29.1 µM [falling, single point]	
CC(=O)NCCc1nc2cc(NC(=O)c3ccc([N+](=O)[O-])cc3)ccc2n1C	9.15%		
O=C(CSCc1ccccc1Cl)Nc1ccc(C(=O)O)cc1	28.5%	6.51 µM [falling, single point]	
O=C(CCn1cnnn1)Nc1ccccc1F	-22.2%	2.31 µM [falling, partial curve]	2.91 µM [rising, single point]
CCOC(=O)c1c(NC(=O)CSc2cccc[n+]2[O-])sc(C(=O)Nc2ccccc2)c1C	-13.4%	10.3 µM [falling, single point]	
COc1ccc(C(C(=O)NC2CCCCC2)N(C(=O)c2sc(C)nc2C)c2ccccc2C)cc1 (configuration not stated)	15.6%		
CCCC12CN3CCN(CC(C3)/C1=N\NC(=O)c1ccc(F)cc1)C2	52.3%	18.4 µM [rising, partial curve]	18.4 µM [rising, single point]
Cc1ccc(OCC(=O)NNC(=O)CCc2ccccc2)cc1	21.7%	13 µM [rising, partial curve]	
Cc1c(C(=O)Nc2ccccc2C(=O)N2CCOCC2)cccc1[N+](=O)[O-]	13.5%	7.31 µM [rising, single point]	
COCCNC(=O)c1cc(-c2cccnc2)nc2ccc(Br)cc12	77.4%		1.3 µM [rising, full curve]
CCOC(=O)c1cc2c(C)n(-c3ccc(C)cc3)c(C)c2ccc1=O	-49.5%		29.1 µM [falling, single point]
Cc1noc(C)c1CSc1nnc2scc(-c3ccc(Cl)cc3)n12	56.2%	0.326 µM [rising, partial curve, poor fit]	0.58 µM [rising, full curve]
